Laboratory results from the supplement of paper PMC10849652.
Some of the results follow.

The chains behind the UniProt entries cited, without tags or fusion partners. Where a name states a change or a piece, a line headed by the entry shows the natural chain unless it says otherwise.
UniProt P83876: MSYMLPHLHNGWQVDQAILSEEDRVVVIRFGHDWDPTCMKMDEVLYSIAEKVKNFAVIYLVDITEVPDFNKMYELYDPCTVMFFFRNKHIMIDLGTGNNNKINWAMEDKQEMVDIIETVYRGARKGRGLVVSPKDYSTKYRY
UniProt P51965: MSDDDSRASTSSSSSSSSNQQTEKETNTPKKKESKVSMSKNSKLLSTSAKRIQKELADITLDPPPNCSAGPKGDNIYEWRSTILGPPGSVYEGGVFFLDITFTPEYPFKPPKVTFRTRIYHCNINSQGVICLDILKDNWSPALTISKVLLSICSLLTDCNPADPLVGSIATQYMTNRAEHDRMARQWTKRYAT
UniProt P15374: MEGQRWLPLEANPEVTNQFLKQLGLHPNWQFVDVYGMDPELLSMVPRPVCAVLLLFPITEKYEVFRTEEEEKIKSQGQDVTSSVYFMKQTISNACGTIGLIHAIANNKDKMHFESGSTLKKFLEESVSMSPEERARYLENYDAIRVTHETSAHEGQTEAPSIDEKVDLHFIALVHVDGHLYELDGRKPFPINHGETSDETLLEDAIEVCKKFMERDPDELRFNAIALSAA
UniProt Q9H4B7, whole entry, looked up: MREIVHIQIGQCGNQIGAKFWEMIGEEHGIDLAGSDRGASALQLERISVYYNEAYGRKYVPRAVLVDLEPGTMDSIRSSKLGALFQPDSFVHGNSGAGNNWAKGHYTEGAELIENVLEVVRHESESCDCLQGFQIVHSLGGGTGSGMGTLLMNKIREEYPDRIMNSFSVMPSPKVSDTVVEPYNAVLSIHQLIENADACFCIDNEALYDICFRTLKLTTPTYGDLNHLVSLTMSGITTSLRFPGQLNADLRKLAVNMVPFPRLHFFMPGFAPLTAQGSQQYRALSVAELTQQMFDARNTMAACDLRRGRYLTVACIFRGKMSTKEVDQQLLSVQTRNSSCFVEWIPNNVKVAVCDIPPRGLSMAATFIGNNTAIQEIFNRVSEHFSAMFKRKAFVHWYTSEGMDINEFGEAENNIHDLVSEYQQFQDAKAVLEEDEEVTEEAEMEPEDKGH
UniProt Q9BSJ2, whole entry, looked up: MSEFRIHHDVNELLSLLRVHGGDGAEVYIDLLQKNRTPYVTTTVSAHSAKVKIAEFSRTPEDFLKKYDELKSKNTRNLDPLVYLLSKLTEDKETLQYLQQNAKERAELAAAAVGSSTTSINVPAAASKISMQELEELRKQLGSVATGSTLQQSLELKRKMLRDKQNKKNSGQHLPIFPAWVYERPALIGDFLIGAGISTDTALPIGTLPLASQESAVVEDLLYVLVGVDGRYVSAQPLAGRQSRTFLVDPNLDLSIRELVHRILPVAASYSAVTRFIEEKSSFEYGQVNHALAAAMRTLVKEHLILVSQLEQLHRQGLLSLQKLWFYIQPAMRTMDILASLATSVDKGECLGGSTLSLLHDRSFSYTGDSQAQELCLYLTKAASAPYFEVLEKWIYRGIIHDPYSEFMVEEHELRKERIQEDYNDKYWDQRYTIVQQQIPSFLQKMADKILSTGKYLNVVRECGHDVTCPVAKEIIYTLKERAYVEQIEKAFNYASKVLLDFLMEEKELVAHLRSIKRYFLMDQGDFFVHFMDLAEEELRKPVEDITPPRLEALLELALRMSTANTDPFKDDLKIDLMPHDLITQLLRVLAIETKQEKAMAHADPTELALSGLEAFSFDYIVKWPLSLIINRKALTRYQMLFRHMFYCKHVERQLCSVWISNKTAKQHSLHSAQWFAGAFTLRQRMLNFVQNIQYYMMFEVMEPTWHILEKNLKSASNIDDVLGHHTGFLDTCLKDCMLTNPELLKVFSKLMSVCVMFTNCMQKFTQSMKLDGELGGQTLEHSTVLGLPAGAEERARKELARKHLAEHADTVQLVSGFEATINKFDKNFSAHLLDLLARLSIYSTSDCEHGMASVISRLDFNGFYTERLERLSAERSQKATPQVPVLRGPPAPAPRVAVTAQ
UniProt Q3KQV9: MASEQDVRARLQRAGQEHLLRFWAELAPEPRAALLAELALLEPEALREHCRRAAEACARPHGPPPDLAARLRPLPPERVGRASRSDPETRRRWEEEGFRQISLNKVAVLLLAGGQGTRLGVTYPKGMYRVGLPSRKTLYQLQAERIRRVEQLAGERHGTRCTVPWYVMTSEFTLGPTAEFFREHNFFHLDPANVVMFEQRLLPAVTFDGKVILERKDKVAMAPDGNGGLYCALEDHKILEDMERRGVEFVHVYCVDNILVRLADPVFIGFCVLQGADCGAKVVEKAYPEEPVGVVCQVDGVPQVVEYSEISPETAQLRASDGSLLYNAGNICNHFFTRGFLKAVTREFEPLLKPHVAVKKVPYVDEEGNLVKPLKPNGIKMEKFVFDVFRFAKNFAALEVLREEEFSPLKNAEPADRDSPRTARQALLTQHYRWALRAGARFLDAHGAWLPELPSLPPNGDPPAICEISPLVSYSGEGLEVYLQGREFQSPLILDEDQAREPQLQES
UniProt Q5TAX3: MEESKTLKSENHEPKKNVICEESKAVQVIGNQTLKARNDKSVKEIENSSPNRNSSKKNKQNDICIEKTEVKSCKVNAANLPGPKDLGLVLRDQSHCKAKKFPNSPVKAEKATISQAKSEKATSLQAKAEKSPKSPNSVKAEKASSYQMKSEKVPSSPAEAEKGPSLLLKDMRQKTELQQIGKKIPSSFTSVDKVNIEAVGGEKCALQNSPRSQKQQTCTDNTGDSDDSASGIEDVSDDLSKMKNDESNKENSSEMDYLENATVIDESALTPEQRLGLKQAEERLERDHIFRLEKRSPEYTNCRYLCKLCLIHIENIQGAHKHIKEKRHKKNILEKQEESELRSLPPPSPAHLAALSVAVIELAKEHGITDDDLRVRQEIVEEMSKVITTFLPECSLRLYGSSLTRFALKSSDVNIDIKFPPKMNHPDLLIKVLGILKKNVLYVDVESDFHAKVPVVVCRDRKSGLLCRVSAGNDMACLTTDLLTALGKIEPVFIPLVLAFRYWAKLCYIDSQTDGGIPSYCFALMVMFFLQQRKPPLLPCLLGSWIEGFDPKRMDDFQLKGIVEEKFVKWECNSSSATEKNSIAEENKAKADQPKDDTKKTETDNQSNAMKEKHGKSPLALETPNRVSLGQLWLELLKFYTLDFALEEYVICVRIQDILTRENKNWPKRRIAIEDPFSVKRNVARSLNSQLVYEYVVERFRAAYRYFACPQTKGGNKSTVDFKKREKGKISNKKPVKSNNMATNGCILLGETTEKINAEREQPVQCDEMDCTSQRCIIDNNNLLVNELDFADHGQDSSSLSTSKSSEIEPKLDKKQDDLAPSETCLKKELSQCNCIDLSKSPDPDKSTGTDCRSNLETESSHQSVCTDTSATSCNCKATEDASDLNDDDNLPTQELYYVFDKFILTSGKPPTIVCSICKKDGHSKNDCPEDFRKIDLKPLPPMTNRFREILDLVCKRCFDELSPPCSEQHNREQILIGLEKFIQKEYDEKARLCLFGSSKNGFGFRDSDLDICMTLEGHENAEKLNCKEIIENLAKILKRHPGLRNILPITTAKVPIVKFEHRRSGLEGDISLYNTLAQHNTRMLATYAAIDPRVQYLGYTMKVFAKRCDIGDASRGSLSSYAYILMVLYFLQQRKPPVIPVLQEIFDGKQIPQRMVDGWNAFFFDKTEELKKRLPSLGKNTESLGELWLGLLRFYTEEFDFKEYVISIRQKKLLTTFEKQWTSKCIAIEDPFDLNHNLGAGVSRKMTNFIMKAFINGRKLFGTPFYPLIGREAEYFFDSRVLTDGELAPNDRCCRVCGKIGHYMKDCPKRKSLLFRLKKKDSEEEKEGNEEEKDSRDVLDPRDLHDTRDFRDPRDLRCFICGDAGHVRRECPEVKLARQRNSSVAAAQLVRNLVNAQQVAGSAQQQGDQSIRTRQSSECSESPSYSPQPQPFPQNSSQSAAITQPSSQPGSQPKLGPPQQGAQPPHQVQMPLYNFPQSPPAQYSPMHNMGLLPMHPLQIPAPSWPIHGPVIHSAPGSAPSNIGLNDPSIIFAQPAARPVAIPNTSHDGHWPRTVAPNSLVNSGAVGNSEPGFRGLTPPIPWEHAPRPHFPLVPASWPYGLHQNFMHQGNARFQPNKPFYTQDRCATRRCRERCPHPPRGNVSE
UniProt Q9Y5K5, whole entry, looked up: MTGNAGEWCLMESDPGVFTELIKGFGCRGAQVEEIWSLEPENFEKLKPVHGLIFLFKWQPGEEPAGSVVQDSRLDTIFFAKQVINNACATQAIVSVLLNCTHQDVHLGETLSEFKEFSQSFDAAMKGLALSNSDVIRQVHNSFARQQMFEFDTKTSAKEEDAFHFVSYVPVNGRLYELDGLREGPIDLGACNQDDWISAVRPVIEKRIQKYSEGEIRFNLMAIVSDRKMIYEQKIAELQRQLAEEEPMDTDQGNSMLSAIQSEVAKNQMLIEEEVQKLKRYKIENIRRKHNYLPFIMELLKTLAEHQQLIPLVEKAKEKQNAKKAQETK
UniProt P63146, whole entry, looked up: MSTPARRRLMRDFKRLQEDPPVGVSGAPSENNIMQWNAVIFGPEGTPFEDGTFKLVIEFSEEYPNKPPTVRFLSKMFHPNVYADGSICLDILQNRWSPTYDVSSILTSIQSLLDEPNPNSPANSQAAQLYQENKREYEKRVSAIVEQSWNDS
UniProt P07437, whole entry, looked up: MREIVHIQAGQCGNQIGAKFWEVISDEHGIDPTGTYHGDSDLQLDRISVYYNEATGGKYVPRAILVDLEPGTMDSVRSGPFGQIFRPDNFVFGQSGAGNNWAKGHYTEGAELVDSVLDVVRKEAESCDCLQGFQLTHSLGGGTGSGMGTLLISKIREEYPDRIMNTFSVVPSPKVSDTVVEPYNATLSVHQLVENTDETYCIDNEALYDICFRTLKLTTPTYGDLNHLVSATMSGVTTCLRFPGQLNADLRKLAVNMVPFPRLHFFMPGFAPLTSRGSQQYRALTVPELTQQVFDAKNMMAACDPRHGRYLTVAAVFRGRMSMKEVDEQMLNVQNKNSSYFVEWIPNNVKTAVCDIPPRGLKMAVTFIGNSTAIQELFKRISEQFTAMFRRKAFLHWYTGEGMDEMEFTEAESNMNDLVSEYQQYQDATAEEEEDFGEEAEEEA
UniProt P51668: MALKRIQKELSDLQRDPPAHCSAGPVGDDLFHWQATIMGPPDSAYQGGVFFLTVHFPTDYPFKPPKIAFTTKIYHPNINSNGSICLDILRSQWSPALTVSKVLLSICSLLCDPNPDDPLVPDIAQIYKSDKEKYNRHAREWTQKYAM
UniProt Q13509, whole entry, looked up: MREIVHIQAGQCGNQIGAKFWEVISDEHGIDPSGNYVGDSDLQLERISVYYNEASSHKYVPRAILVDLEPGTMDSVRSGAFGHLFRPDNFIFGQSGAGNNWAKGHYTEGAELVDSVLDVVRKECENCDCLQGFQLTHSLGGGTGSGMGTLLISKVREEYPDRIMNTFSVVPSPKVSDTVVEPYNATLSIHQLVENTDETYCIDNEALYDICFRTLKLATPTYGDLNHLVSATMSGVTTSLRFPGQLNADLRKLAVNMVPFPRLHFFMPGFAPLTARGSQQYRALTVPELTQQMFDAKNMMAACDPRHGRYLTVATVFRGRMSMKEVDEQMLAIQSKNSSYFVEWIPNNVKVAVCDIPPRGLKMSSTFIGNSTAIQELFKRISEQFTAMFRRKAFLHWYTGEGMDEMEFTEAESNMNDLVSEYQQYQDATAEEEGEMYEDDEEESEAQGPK
UniProt Q969T4: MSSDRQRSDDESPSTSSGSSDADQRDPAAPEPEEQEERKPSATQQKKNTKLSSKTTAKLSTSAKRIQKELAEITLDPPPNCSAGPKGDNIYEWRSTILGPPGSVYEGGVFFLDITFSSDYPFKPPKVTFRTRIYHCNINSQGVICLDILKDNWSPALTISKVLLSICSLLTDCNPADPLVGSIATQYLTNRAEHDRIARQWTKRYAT
UniProt P0CG48, whole entry, looked up: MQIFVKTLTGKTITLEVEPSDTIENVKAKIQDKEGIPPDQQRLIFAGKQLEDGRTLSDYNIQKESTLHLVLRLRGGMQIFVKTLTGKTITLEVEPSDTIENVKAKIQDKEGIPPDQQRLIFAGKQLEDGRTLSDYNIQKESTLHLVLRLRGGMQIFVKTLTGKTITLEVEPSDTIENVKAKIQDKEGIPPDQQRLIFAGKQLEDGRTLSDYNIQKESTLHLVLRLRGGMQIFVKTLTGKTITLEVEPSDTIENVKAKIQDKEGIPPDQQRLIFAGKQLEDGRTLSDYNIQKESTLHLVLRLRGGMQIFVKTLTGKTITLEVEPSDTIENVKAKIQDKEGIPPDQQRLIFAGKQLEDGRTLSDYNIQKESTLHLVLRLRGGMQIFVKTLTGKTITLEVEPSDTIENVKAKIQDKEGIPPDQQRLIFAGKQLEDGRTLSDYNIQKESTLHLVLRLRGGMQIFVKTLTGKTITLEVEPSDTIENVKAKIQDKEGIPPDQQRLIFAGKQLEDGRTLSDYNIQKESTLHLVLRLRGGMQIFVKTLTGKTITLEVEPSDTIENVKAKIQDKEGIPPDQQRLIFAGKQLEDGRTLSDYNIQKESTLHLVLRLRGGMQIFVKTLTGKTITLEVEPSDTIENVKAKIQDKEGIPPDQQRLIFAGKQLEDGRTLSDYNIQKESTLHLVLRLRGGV

The targets below were run with CC1=CC=C(C=C1)SC2=C3C=C(SC3=CN=C2)C(=O)N (assay: log2 fold change, soluble protein after heating vs DMSO (PISA); higher = thermal stabilisation; K562 lysate, 10 uM; active = over 0.2 and 3.5 SD of the protein, either way, in both replicates (recomputed)).
Outline: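 Values give the log-two fold change in thermal stability against solvent controls, from duplicates. Crude K562 extract at 1 mg/mL protein, made by dounce homogenisation in PBS pH 7.4 with 1 mM MgCl2, was treated with 10 μM compound for 30 min. After 3 min heating across 48°C-58°C, aliquots were pooled, adjusted to 0.5% NP-40 at 4°C and centrifuged at 21,000xg for 90 min. The supernatant was measured by TMTpro 16plex LC-MS/MS with channel sums equalised.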

| Target | log2 fold change |
| --- | --- |
| TXN2 (UniProt Q99757) | inactive: -0.026 |
| TWISTNB (UniProt Q3B726) | inactive: 0.003 |
| UBE2L3 isoform 3 (UniProt P68036) | inactive: 0.007 |
| UBE2R2 (UniProt Q712K3) | inactive: 0.051 |
| TXNL4A (UniProt P83876) | inactive: 0.002 |
| TXNRD1 (UniProt Q16881) | inactive: -0.019 |
| UBE2Q1 (UniProt Q7Z7E8) | inactive: -0.049 |
| TUBG1 (UniProt P23258) | inactive: -0.015 |
| UBE2E1 (UniProt P51965) | inactive: 0.086 |
| UCHL3 (UniProt P15374) | inactive: 0.035 |
| TUBB1 (UniProt Q9H4B7) | inactive: 0.012 |
| UBE2I (UniProt P63279) | inactive: -0.002 |
| TXLNA (UniProt P40222) | inactive: -0.009 |
| TTN isoform 12 (UniProt Q8WZ42) | inactive: -0.047 |
| UBR2 isoform 4 (UniProt Q8IWV8) | inactive: -0.002 |
| TUBGCP2 isoform 4 (UniProt Q9BSJ2) | inactive: -0.017 |
| TXNRD2 (UniProt Q9NNW7) | inactive: 0.006 |
| UAP1L1 (UniProt Q3KQV9) | inactive: 0.088 |

Taken from the entries so far for reference:

| Target | log2 fold change |
| --- | --- |
| TXNL4A (UniProt P83876) | inactive: 0.002 |
| TXNRD1 (UniProt Q16881) | inactive: -0.019 |

(listing goes on)

| Target | log2 fold change |
| --- | --- |
| TUT4 (UniProt Q5TAX3) | inactive: 0.041 |
| UCHL5 isoform 3 (UniProt Q9Y5K5) | inactive: 0.012 |
| TTPAL (UniProt Q9BTX7) | inactive: -0.018 |
| UBE2B (UniProt P63146) | inactive: 0.024 |
| UBE4B isoform 4 (UniProt O95155) | inactive: -0.008 |
| TUBGCP3 (UniProt Q96CW5) | inactive: 0.028 |
| TUBB (UniProt P07437) | inactive: 0.009 |
| UBE2V2 (UniProt Q15819) | inactive: -0.002 |
| UBXN1 (UniProt Q04323) | inactive: -0.023 |
| UBFD1 (UniProt O14562) | inactive: -0.002 |
| UBE2D1 (UniProt P51668) | inactive: -0.007 |
| UBQLN2 (UniProt Q9UHD9) | inactive: -0.017 |
| TUFM (UniProt P49411) | inactive: 0.016 |
| U2AF1 isoform 2 (UniProt Q01081) | inactive: 0.019 |
| TUBB3 (UniProt Q13509) | inactive: 0.019 |
| UBE2E3 (UniProt Q969T4) | inactive: 0.042 |
| UBC (UniProt P0CG48) | inactive: -0.007 |
